These are yes or no findings as the source states them, for the method shown. In cells and extracts the contact can be indirect. A yes stands for co-enrichment or nearness to the bait. Other partners may have been found.

Protein sequences, listed by entry. Tags and fused reporters are not part of them.
UniProt P35226: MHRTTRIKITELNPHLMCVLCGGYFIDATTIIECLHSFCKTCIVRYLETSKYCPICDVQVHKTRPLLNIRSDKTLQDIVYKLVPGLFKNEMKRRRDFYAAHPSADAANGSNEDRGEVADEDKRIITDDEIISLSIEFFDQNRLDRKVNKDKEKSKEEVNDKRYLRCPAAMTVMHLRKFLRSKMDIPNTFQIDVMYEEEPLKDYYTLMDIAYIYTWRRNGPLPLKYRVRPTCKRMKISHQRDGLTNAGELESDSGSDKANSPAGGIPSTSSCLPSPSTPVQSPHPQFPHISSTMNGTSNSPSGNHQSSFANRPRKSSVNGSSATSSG
UniProt Q9BSM1: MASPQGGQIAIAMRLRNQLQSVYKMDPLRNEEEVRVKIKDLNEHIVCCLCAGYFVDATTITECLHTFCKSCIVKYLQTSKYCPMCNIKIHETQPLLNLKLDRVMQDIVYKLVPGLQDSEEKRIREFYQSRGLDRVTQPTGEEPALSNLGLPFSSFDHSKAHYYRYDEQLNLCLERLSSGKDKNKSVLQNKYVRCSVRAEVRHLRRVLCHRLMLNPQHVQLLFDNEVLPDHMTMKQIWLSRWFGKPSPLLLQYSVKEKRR
UniProt Q99496: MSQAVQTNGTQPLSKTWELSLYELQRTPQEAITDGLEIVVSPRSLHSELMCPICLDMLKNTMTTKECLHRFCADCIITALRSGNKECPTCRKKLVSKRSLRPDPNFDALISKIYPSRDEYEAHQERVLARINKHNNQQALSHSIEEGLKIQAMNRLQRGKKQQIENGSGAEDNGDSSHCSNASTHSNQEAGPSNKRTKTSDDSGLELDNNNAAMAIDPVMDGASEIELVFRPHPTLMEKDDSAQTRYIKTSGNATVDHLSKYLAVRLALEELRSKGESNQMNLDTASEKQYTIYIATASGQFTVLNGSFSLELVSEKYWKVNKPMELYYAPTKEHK
UniProt A5YKK6: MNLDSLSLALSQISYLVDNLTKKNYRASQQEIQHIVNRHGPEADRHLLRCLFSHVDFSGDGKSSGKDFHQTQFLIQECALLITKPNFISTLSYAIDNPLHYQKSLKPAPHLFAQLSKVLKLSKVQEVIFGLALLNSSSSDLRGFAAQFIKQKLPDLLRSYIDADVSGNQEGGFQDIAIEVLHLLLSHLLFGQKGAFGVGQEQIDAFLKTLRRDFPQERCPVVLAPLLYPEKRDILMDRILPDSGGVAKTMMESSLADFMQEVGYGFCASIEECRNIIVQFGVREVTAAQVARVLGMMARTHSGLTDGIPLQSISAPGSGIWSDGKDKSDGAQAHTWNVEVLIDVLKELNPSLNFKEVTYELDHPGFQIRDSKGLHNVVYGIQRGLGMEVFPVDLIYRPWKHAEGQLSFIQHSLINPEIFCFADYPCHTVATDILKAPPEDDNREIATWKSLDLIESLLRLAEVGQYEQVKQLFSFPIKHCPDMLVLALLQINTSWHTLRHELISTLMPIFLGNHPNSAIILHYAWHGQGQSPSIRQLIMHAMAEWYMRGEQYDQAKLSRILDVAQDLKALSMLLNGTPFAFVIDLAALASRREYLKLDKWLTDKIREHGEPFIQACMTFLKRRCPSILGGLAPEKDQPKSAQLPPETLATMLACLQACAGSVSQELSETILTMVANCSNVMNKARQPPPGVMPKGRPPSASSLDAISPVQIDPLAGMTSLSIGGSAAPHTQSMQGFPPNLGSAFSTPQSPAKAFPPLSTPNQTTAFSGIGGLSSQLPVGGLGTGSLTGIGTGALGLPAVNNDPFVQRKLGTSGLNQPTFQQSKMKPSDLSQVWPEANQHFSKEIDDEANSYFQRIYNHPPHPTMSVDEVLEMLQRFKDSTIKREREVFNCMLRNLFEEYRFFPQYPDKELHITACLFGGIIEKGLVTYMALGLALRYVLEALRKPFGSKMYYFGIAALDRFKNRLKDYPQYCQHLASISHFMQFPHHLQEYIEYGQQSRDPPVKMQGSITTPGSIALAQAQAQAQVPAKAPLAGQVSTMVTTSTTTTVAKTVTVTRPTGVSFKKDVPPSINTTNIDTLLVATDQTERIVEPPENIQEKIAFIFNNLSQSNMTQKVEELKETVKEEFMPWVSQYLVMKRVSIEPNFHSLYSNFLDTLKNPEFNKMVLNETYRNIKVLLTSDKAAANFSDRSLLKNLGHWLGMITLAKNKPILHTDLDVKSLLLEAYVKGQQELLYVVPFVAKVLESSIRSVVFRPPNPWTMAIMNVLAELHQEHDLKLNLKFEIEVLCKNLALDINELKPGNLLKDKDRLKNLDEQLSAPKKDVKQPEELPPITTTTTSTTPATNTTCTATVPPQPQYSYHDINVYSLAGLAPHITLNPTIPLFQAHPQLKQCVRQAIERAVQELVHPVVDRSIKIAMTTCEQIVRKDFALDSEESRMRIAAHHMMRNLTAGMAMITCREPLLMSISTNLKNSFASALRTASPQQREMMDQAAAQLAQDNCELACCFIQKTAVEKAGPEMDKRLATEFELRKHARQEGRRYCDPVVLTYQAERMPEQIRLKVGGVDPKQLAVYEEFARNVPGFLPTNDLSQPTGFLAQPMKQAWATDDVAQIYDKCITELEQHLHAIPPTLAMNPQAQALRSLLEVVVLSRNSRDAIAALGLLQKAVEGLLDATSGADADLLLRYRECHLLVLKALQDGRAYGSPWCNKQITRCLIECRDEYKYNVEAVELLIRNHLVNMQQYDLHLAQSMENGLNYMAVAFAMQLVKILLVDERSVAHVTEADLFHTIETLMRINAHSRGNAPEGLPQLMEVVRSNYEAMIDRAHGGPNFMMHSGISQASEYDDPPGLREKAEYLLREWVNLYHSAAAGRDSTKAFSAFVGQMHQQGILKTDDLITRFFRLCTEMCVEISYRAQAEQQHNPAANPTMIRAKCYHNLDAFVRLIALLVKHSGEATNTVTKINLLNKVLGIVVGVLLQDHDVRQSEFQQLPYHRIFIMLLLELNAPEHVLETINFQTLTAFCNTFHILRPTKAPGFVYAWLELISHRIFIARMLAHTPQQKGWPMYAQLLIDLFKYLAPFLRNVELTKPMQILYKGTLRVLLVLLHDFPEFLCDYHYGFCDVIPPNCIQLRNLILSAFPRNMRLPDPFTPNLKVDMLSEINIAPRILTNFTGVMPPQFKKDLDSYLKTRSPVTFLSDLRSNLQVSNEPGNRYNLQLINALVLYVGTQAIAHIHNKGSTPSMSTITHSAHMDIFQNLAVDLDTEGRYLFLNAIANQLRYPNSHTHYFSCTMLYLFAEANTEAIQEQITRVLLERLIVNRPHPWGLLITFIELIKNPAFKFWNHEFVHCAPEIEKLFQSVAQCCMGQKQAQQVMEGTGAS
UniProt Q86SE9: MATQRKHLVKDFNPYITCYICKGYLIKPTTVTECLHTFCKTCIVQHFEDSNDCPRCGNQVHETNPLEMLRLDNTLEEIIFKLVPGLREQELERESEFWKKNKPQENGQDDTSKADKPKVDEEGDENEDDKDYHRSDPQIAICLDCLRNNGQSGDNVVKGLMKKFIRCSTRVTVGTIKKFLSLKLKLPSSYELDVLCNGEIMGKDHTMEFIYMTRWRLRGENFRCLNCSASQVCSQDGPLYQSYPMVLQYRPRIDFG

What all share (assay): affinity purification with mass spectrometry; endogenous proteins; NT2 nuclear lysates immunoprecipitated with α-PCGF1, α-PCGF2, α-PCGF4/BMI1 or α-RNF2/RING1B, rabbit IgG as negative control; trypsin digestion on beads, label-free quantitation (MaxQuant), FDR 1%, ≥1.5-fold change
For test [1], the target named is PCGF4/BMI1 (human (endogenous in NT2)) (UniProt P35226).
Test [2] addresses PCGF1 (human (endogenous in NT2)) (UniProt Q9BSM1).
The target of test [3] is T1, PCGF2 (human (endogenous in NT2)) (UniProt P35227).
T1 sequence: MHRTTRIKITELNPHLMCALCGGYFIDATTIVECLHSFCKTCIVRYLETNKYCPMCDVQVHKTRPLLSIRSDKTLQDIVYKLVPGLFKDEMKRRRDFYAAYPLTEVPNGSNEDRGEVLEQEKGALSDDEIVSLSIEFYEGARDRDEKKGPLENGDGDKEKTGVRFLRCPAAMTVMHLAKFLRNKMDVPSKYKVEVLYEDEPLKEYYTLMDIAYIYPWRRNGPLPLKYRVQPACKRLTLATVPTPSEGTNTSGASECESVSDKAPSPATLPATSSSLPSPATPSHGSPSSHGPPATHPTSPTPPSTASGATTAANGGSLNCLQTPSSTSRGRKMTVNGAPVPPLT

Test [4] deals with RNF2/RING1B (human (endogenous in NT2)) (UniProt Q99496).

As for CNOT1 (from UniProt A5YKK6 1-2376), the binding entry in test [1], in test [2], in test [3] and in test [4] was “binds” each time.
PCGF5 (from UniProt Q86SE9 1-256): the binding entry in test [4] is reported as “binds”.

B1: PCGF3 (protein, UniProt Q3KNV8 1-242)
chain: MLTRKIKLWDINAHITCRLCSGYLIDATTVTECLHTFCRSCLVKYLEENNTCPTCRIVIHQSHPLQYIGHDRTMQDIVYKLVPGLQEAEMRKQREFYHKLGMEVPGDIKGETCSAKQHLDSHRNGETKADDSSNKEAAEEKPEEDNDYHRSDEQVSICLECNSSKLRGLKRKWIRCSAQATVLHLKKFIAKKLNLSSFNELDILCNEEILGKDHTLKFVVVTRWRFKKAPLLLHYRPKMDLL
Regarding B1, the binding result in test [4] is on record as “binds”.

B2: PCGF6 (protein, UniProt Q9BYE7 1-350)
chain: MEGVAVVTAGSVGAAKTEGAAALPPPPPVSPPALTPAPAAGEEGPAPLSETGAPGCSGSRPPELEPERSLGRFRGRFEDEDEELEEEEELEEEEEEEEEDMSHFSLRLEGGRQDSEDEEERLINLSELTPYILCSICKGYLIDATTITECLHTFCKSCIVRHFYYSNRCPKCNIVVHQTQPLYNIRLDRQLQDIVYKLVINLEEREKKQMHDFYKERGLEVPKPAVPQPVPSSKGRSKKVLESVFRIPPELDMSLLLEFIGANEGTGHFKPLEKKFVRVSGEATIGHVEKFLRRKMGLDPACQVDIICGDHLLEQYQTLREIRRAIGDAAMQDGLLVLHYGLVVSPLKIT
Turning to B2, the binding result in test [4] was “binds”.

B3: CNOT4 (protein, UniProt O95628 1-575)
chain: MSRSPDAKEDPVECPLCMEPLEIDDINFFPCTCGYQICRFCWHRIRTDENGLCPACRKPYPEDPAVYKPLSQEELQRIKNEKKQKQNERKQKISENRKHLASVRVVQKNLVFVVGLSQRLADPEVLKRPEYFGKFGKIHKVVINNSTSYAGSQGPSASAYVTYIRSEDALRAIQCVNNVVVDGRTLKASLGTTKYCSYFLKNMQCPKPDCMYLHELGDEAASFTKEEMQAGKHQEYEQKLLQELYKLNPNFLQLSTGSVDKNKNKVTPLQRYDTPIDKPSDSLSIGNGDNSQQISNSDTPSPPPGLSKSNPVIPISSSNHSARSPFEGAVTESQSLFSDNFRHPNPIPSGLPPFPSSPQTSSDWPTAPEPQSLFTSETIPVSSSTDWQAAFGFGSSKQPEDDLGFDPFDVTRKALADLIEKELSVQDQPSLSPTSLQNSSSHTTTAKGPGSGFLHPAAATNANSLNSTFSVLPQRFPQFQQHRAVYNSFSFPGQAARYPWMAFPRNSIMHLNHTANPTSNSNFLDLNLPPQHNTGLGGIPVAGEEEVKVSTMPLSTSSHSLQQGQQPTSLHTTVA
Regarding B3, the binding result in test [1], in test [2], in test [3] and in test [4] was “binds” in each case.

B4: PHC3 (protein, UniProt Q8NDX5 1-983)
chain: MDTEPNPGTSSVSTTTSSTTTTTITTSSSRMQQPQISVYSGSDRHAVQVIQQALHRPPSSAAQYLQQMYAAQQQHLMLHTAALQQQHLSSSQLQSLAAVQASLSSGRPSTSPTGSVTQQSSMSQTSINLSTSPTPAQLISRSQASSSTSGSITQQTMLLGSTSPTLTASQAQMYLRAQMLIFTPATTVAAVQSDIPVVSSSSSSSCQSAATQVQNLTLRSQKLGVLSSSQNGPPKSTSQTQSLTICHNKTTVTSSKISQRDPSPESNKKGESPSLESRSTAVTRTSSIHQLIAPASYSPIQPHSLIKHQQIPLHSPPSKVSHHQLILQQQQQQIQPITLQNSTQDPPPSQHCIPLQNHGLPPAPSNAQSQHCSPIQSHPSPLTVSPNQSQSAQQSVVVSPPPPHSPSQSPTIIIHPQALIQPHPLVSSALQPGPNLQQSTANQVQATAQLNLPSHLPLPASPVVHIGPVQQSALVSPGQQIVSPSHQQYSSLQSSPIPIASPPQMSTSPPAQIPPLPLQSMQSLQVQPEILSQGQVLVQNALVSEEELPAAEALVQLPFQTLPPPQTVAVNLQVQPPAPVDPPVVYQVEDVCEEEMPEESDECVRMDRTPPPPTLSPAAITVGRGEDLTSEHPLLEQVELPAVASVSASVIKSPSDPSHVSVPPPPLLLPAATTRSNSTSMHSSIPSIENKPPQAIVKPQILTHVIEGFVIQEGLEPFPVSRSSLLIEQPVKKRPLLDNQVINSVCVQPELQNNTKHADNSSDTEMEDMIAEETLEEMDSELLKCEFCGKMGYANEFLRSKRFCTMSCAKRYNVSCSKKFALSRWNRKPDNQSLGHRGRRPSGPDGAAREHILRQLPITYPSAEEDLASHEDSVPSAMTTRLRRQSERERERELRDVRIRKMPENSDLLPVAQTEPSIWTVDDVWAFIHSLPGCQDIADEFRAQEIDGQALLLLKEDHLMSAMNIKLGPALKICARINSLKES
For the molecule B4, the binding entry in test [1], in test [2] and in test [3] was “binds” each time.

The values are drawn from publication PMC11432245.
